Publication doi:10.1101/2023.05.04.539414
These are yes or no findings as the source states them, for the method shown. A result given as binding can be weak or reduced; the word gives no strength.

Biological target: C-terminal LRR domain of TOL-1, purified (Caenorhabditis elegans)
Assay: SEC

B1: LAT-1 Lec domain (residues T32-P136), purified (domain or fragment, UniProt G5EDW2 32-136)
chain: TTDESGTISHTICDGEAAELSCPAGKVISIVLGNYGRFSVAVCLPDNDIVPSNINCQNHKTKSILEKKCNGDSMCYFTVDKKTFTEDPCPNTPKYLEVKYNCVVP
Q: For B1, which binding is on record?
A: The binding was “binds”.
